Here are results for two substances from paper PMC3777959.

The chains behind the UniProt entries cited, without tags or fusion partners. Where a name states a change or a piece, a line headed by the entry shows the natural chain unless it says otherwise.
UniProt Q9Y266: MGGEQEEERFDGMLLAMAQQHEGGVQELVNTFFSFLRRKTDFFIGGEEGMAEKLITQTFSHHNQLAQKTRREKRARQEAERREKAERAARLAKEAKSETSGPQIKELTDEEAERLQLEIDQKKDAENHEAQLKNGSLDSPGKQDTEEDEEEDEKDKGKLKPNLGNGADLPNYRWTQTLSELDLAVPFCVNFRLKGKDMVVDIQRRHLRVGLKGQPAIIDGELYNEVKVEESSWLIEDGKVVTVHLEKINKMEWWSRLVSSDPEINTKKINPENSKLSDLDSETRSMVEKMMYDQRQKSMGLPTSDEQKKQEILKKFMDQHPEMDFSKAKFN
UniProt O15379: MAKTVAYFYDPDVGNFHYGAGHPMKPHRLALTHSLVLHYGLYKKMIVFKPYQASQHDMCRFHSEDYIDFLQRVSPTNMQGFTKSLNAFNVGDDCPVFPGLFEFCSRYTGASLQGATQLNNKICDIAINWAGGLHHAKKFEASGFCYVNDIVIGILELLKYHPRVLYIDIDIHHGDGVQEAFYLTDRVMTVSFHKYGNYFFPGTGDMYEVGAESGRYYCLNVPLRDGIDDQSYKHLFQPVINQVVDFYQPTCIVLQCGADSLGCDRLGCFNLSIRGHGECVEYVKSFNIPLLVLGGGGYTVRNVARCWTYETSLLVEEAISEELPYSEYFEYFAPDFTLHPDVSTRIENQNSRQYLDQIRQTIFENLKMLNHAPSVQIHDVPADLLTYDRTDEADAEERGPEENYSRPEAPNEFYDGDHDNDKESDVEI
UniProt P53350: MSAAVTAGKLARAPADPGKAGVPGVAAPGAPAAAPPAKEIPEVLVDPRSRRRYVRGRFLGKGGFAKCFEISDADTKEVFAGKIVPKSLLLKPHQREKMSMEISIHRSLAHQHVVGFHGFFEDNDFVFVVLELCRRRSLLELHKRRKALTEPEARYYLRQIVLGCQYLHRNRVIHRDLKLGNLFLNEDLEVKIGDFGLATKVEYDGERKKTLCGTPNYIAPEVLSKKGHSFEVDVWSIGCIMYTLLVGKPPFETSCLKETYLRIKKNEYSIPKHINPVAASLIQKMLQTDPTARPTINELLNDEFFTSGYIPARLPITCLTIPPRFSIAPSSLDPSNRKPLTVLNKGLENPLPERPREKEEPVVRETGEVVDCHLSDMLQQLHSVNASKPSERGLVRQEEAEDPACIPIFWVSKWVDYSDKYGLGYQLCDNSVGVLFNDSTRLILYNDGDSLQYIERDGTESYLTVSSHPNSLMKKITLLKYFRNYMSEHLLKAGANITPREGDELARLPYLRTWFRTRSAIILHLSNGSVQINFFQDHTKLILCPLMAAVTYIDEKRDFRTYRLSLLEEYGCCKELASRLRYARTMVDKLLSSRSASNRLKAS

No constants are given. Whether binding was seen depends on the method and setting. In cells and extracts the contact can be indirect. Binding calls can cover weak binding; strength is not graded here.

In one experiment the target is EGFP-NudC K39R (human) (UniProt Q9Y266). Kind of experiment: co-IP; HeLa cells transfected with EGFP-NudC WT, K39R or K39Q for 24 h, enriched in mitosis (thymidine and nocodazole block and release); lysates (2 mg) immunoprecipitated with GFP antibody, blotted for HDAC3, Plk1 and GFP; IgG as antibody control.
In the next experiment the target is EGFP-NudC K39Q (human) (UniProt Q9Y266). The experiment is described as above.

With “histone deacetylase HDAC3 (from UniProt O15379 1-428) (enzyme)”, the binding result with EGFP-NudC K39R (human) and with EGFP-NudC K39Q (human) was “binds” each time.
On to “polo-like kinase 1 (Plk1) (from UniProt P53350 1-603) (enzyme)”, for which the binding result in the experiment with EGFP-NudC K39R (human) and with EGFP-NudC K39Q (human) was “binds” throughout.
